In article PMC4349864 one finds binding data, which are given here for one substance.

By UniProt entry, the sequences of proteins in these tests, tags left out.
UniProt P61586: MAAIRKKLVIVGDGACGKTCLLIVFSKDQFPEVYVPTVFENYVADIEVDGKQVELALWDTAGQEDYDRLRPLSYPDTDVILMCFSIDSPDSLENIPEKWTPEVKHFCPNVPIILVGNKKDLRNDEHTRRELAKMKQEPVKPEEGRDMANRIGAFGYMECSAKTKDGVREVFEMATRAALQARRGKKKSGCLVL

In this assay the target is glutathione S-transferase (GST)-fused VopO (Vibrio parahaemolyticus) (UniProt Q87GI7). Briefly: pull-down; purified GST-VopO and glutathione beads incubated with HeLa cell lysate (RIPA buffer) at 4°C for 4 h; beads washed with RIPA buffer; western blot of the eluate; only the target purified. For orientation: A western blot detects proteins with antibodies after separation by electrophoresis.

These are yes or no findings as the source states them, for the method shown. Binding seen in cells or lysates may run through a third protein.

As to “RhoA (endogenous, HeLa cell lysate) (from UniProt P61586 1-193)”, the binding result is listed as “no binding”.
